Measured values: patent US20250154279A1
Results are given in words; binding and its absence hold for the method and conditions named. Some results given as binding are weak or reduced against the parent protein; the word gives no strength. Where a sequence is shown, tags or fusion partners need not be part of it.

Sequences of proteins named here, by UniProt entry; tags and fusion partners are left off. A change or cut given only in a name is not applied to a line headed by its entry.
UniProt Q07011: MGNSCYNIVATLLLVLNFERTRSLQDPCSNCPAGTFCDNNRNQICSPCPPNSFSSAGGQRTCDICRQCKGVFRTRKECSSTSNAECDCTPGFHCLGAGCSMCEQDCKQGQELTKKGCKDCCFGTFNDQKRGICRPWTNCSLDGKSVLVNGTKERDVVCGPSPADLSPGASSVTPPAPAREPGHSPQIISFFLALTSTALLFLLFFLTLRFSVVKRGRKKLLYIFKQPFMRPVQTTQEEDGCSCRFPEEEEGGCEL

Experiments:
[1] = target: human CD137 (recombinant antigen of the ELISA of Example 2 and the SPR of Example 3; construct not stated) (human) (UniProt Q07011); experiment: antigen ELISA
[2] = target: human CD137 (recombinant antigen of the ELISA of Example 2 and the SPR of Example 3; construct not stated) (human) (UniProt Q07011); experiment: ELISA

binding [1]: binds | binding [2]: binds
B1: BGA-9612 VHH-Fc (camelid anti-huCD137 VHH fused at the N terminal of human IgG1 Fc-null with a G4S linker) (VHH)
VHH: QVQLVESGGGTVQPGDSLRLSCAASGRTFDNYAVGWFRQAPGKERQYVGTYWSGYAHYGDFENNRFTISRDNAKNTVYLQMDNLKPEDTAVYYCAISLKYPMATVTPDYQGQGTQVTVSS
